# Results of single-concentration screens

Chains of the proteins cited; added tags and fusions are not shown. Residues count along the entry.
UniProt A4I591, 1-473: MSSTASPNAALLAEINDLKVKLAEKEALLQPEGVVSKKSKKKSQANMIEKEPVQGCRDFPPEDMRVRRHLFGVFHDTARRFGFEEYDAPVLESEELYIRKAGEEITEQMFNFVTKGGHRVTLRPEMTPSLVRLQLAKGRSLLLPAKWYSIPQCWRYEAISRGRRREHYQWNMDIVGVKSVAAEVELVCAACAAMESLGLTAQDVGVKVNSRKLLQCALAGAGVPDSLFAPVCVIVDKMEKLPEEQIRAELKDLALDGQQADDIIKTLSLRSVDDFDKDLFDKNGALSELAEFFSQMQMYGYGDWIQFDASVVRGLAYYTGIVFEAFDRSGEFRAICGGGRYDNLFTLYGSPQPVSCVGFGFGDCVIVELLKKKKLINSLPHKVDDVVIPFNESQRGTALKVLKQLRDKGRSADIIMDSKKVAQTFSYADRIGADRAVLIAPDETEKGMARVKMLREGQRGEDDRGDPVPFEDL
UniProt P9WFT3, whole entry: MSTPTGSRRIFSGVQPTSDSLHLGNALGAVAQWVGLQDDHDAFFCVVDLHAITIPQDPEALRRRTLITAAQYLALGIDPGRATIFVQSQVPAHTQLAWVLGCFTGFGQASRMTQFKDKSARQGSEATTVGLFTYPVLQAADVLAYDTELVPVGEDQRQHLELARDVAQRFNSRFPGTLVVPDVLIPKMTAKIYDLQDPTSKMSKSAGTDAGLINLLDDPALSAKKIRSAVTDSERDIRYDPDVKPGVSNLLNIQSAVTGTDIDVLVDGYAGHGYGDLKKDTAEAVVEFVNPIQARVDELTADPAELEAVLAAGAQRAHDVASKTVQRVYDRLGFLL
UniProt P9WNZ1, whole entry: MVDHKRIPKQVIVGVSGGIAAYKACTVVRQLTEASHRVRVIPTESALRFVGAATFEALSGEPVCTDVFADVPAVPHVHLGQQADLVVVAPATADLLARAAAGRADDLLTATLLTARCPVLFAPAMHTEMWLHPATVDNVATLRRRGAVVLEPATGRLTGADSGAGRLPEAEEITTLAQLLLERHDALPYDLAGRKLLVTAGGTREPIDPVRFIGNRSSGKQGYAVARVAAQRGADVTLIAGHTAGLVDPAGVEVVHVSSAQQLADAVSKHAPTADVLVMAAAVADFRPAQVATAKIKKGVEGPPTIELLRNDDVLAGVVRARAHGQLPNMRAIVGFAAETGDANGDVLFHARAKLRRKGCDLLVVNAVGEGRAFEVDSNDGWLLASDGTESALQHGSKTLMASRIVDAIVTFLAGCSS

Values are the deposited “Percent Effect”, in %.
The controls that fix the scale are not given in the record; negative values are as filed.
This is an unselected part of the compounds tested.
Two or more numbers in one place are separate tests of the same structure; such repeats can differ widely.
A dash means the value is not listed here; it may have been measured.

A: 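Histidine-tRNA ligase, Leishmania infantum (UniProt A4I591). Enzyme assay of histidyl-tRNA synthetase; the read-out is not stated. Tested at 30 µM. Higher reads as stronger inhibition (inferred: compounds with an IC50 in retests scored well above the rest). The assay is labelled LdHisRS but filed under L. infantum. Of about 69,000 compounds tested this way, about 410 (0.6%) reached 50% or more in at least one test.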
B: 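Tryptophan-tRNA ligase, Mycobacterium tuberculosis (UniProt P9WFT3). Enzyme assay of tryptophanyl-tRNA synthetase; the read-out is not stated. Concentration: 10 µM. Direction is not recorded; retested compounds ran higher, which suggests that high means inhibition. About 65,000 compounds were tested under these conditions; 0.098% (about 64) showed 50% or more at least once.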
C: 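Enzyme assay of CoaBC with a phosphate dye (Biomol Green) read at 650 nm. Target: Coenzyme A biosynthesis protein CoaBC, Mycobacterium tuberculosis (UniProt P9WNZ1). Concentration: 30 µM. Direction is inferred from only a few compounds that gave an IC50; most scored high, so higher reads as stronger inhibition. Most strong results did not repeat in a second test. About 67,000 compounds were tested under these conditions; 0.06% (about 40) showed 50% or more at least once.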

compound,A,B,C
Cc1nc(N2C[C@H]3CC[C@@H](C2)N3)nc2cc(S(C)(=O)=O)ccc12,5.479,-0.7452,-12.96
COc1nc2c(cc1C(=O)NCCc1nc3ccccc3s1)CCC2,8,-2.611,5.372
O=S1(=O)CCC(CNS(=O)(=O)N2CCc3ccccc3C2)C1 (configuration not stated),11.11,-1.605,-4.657
COc1cc(NCC(=O)NC(C)(C#N)C(C)C)cc(OC)c1OC (configuration not stated),29.58,-5.146,-
Fc1cccc(-c2nc(CN3CCCC3Cn3cncn3)co2)c1 (configuration not stated),14.29,10.9,13.64
CC(C)(C)CN1CCN2C(=O)N(C3CCCCC3)C[C@H]2C1,32.43,-1.602,22.2 & -10.58
Cc1ccc(CN(C)c2nccc(-c3cn(C)nc3C)n2)o1,24.19,0.4968,-1.353
CC(C)(C)C(O)CN1CCN(C(=O)c2cccc3[nH]ncc23)CC1 (configuration not stated),21.28,-2.747,3.368
CCC(=O)CNC(=O)CCn1nc2ccccn2c1=O,-5.333,-2.031,2.893
CC(c1nnc(-c2cccs2)o1)N1CCn2c(nnc2C2CC2)C1 (configuration not stated),4.274,-3.431,-1.681
CCCc1nc(C)c(C(=O)NS(=O)(=O)c2ccc(C#N)cc2)s1,17.31,-0.2322,12.15
O=C(NCCN1CCCCCC1)c1n[nH]c(=O)c2ccccc12,7.143,16.22,2.273
CCCn1ccnc1CN1CCCC(O)(CN2CCCC2)C1 (configuration not stated),18.99,-1.732,3.929
O=C(c1ccc(CN2CCCC2)cc1)N1CCCC(n2cccn2)C1 (configuration not stated),27.27,-5.853,-1.008
CCn1cc(CNC2CC(=O)N(CCc3cccc(Cl)c3)C2)cn1 (configuration not stated),5.714,-1.398,-8.817
Cc1cnn(C2CCCN(C(=O)CCCc3ccccn3)C2)c1 (configuration not stated),14.29,-2.941,10.96
CC(c1cccc(-c2nccn2CCc2cn[nH]c2)c1)N(C)C (configuration not stated),-2.857,1.786,-10.33
Cc1ncc(C(=O)NCCOc2ccccc2F)c(C)n1,11.76,-1.563,5.031
Cc1cc(C)n(C2CCCN(C(=O)c3cc(C(N)=O)cs3)C2)n1 (configuration not stated),11.97,1.079,-5.898
CN1[C@@H](c2ccccc2)[C@@H](C(=O)NCc2ccncc2)C[C@@]1(C)C(=O)O,23.4,2.221,0
COCCNC(=O)CN(C)Cc1ccc(F)cc1Cl,-3.03,-3.416,5.325
CN(C)c1ccc(CC(=O)N[C@@H]2CCNC[C@H]2O)cc1,30.19,4.526,-42.73
CCc1ccc(C(C)NC(=O)CCc2nc(-c3nnc[nH]3)no2)cc1 (configuration not stated),24.73,3.293,1.827
CC(C)CN1CC(c2nc(-c3ccsc3)c[nH]2)CC1=O (configuration not stated),8,2.031,11.57
CCN1CCN(S(=O)(=O)N2CCCCCC2)[C@H]2CS(=O)(=O)C[C@H]21,10.83,17.54,-
Cc1cc(C)c2nc(CN[C@H]3CCCNC3)cc(O)c2c1,14.88,2.848,-15.33
CCOCc1cnc2n1CCN(C(=O)c1cccc3c1OCCO3)C2C (configuration not stated),9.901,-,5.569
Cc1cccc(N2Cc3nc(=O)[nH]n3C2=O)c1,11.65,-3.819,10.63
COc1ccccc1CCN(C)Cc1nc(N)nc(N(C)C)n1,2.073,-5.624,4.459
OC(COCc1cccs1)Cn1cc(Br)cn1 (configuration not stated),17.2,-2.417,3.928
CC(NC(=O)NCCCN1CCc2ccccc2C1)c1nncn1C (configuration not stated),-1.818,2.066,5.357
COCc1nc(C(=O)N2CCCC2c2ccncc2)cs1 (configuration not stated),11.3,-2.939,5.725
c1ccc(CN2CCN(C3CCOC4(CCOCC4)C3)CC2)nc1 (configuration not stated),15.66,1.071,2.886
Cn1ccnc1CN1CCC(Cc2ccccn2)CC1,1.449,-,-4.854
O=C(NCc1csc(Br)c1)N1CCOCC1,7.339,0.4838,0.3736
O=C([C@@H]1CCO[C@@H]2CCN(Cc3ccco3)C[C@H]21)N1CCCCO1,11.11,-3.439,6.452
CC(=O)N1CCOC(c2nc(N(C)C)ncc2-c2cccc(F)c2)C1 (configuration not stated),14.48,-4.863,6.057
O=C(c1ccc2cccc(F)c2n1)N1CCN(CCn2cncn2)CC1,22.58,6.299,2.314
c1cc2nc(C3CCN(CC4CC4)CC3)nn2cc1N1CCCC1,0,3.043,-22.58
Cc1noc(C)c1C(=O)Nc1ccc2ncn(CC(C)C)c(=O)c2c1,21.74,15.76,-5.225
Cc1cc(CN(C)C(=O)c2ccnc(N(C)C)c2)no1,17.57,1.943,3.259
Cc1ccccc1OCC(O)C(=O)N1CCC2(CC1)CN(C)C(=O)O2 (configuration not stated),0,0.3119,-2.823
Cc1nc(CN2C[C@@H]3CCCO[C@@H]3[C@H](NC(=O)CC3CC3)C2)cs1,20,-1.302,3.909
CS(=O)(=O)CCCNC1CCCN(Cc2noc(C3CC3)n2)C1 (configuration not stated),14.29,5.156,7.118
Cc1nc(Nc2cnccn2)cc(C2CCCN2C2CCOCC2)n1 (configuration not stated),-2,-,4.089
Cc1noc(C(C)C)c1C(=O)NCc1cc(F)cc(F)c1,13.7,4.237,-0.4819
CNC(=O)CN1CCC(NC(=O)N(C)Cc2c(C)noc2C)CC1,-8.333,8.957,3.421
CS(=O)(=O)N1CCCCC12CCCN(Cc1nccs1)C2 (configuration not stated),17.54,18.96,12.05
Cc1cc(=O)n(C)cc1NC(=O)NCc1cccc(F)c1,106.8,0.8942,2.2
COC(=O)C(O)C1CCN(CCc2ccncc2)CC1 (configuration not stated),16.88,9.268,4.114
COc1ccc(C(C)(C)C)cc1CN1CCn2c(CO)nnc2C1,15.79,5.739,1.946
COc1cc(CCC(=O)NCC2CC2)ccc1OCC(F)(F)F,2.632,-1.473,4.824
Cn1cc(CCNC(=O)NCc2nnc3n2CCC3)cn1,-32.58,1.652,5.141
CC(OCC(F)(F)F)C(=O)NCCN(C)C (configuration not stated),5,12.9,5.61
c1nc(N2CCOCC2)ncc1-c1cncn1CCCN1CCCCC1,15.49,-4.222,2.466
Cc1cc(=O)[nH]c(-n2nc(C)c(CCC(=O)NCc3cccs3)c2C)n1,6.742,2.641,0.6017
O=C(Nc1cccnc1)[C@@H]1C[C@H]2OCC[C@H]2N(Cc2nccs2)C1,14.55,-0.5231,7.983
Cc1cccc(C(C)(C)NC(=O)CCS(C)(=O)=O)c1,11.11,2.346,-1.716
CCn1cc(C(=O)N2CCOC(c3nc(-c4cccs4)no3)C2)cn1 (configuration not stated),7.246,-,2.913
CCOCCN1CCN([C@@H]2c3ccccc3C3(CCNCC3)[C@H]2O)CC1,4.918,-0.9762,-0.5981
CN1CC[C@H](N(Cc2ccccc2)C2COC2)C[C@H](O)C1,10.31,-,0.6135
O=C1CC[C@]2(CC[C@@H](NC3CCOCC3)CC2)N1Cc1ccccc1,7.767,-1.859,1.018
CC(Cn1ccnc1)NC(=O)N(C)Cc1ccc2c(c1)OCCO2 (configuration not stated),10.71,31.93,8.864
COc1ccc(OCCNCCn2cccn2)cc1,-56.76,-7.31,3.655
CC(C)n1nc2c(cc1=O)CN(c1ncnc3ccccc13)CC2,18.92,-0.000009,-2.724
CO[C@H]1CO[C@@]2(CCCN(C(=O)C3=CCCCC3)C2)C1,9.434,-6.611,-1.142
Cc1cncc(C2CCCN(CC3CCC3)C2)n1 (configuration not stated),24.64,-,2.67
Cc1cnn(CC(C)NCC(=O)NC2CCOCC2)c1 (configuration not stated),30.14,1.04,11.78
COc1c(CNCCc2c[nH]c3ccccc23)c(C(C)C)nn1C,11.7,0.5161,0.6734
CN(C)C(=O)CN1CCCC1c1nccnc1Nc1ccccn1 (configuration not stated),11.46,-,1.961
NC(=O)CN(Cc1ccc(Br)cc1)C(=O)c1cccnc1,6.25,-7.121,4.018
CC(C)(C)CNS(=O)(=O)C1CS(=O)(=O)c2ccccc21 (configuration not stated),28.57,5.057,-

Some entries from above, unchanged:

{"compound": "Cc1nc(CN2C[C@@H]3CCCO[C@@H]3[C@H](NC(=O)CC3CC3)C2)cs1", "A": 20, "B": -1.302, "C": 3.909}
{"compound": "CN(C)c1ccc(CC(=O)N[C@@H]2CCNC[C@H]2O)cc1", "A": 30.19, "B": 4.526, "C": -42.73}
{"compound": "CN(C)C(=O)CN1CCCC1c1nccnc1Nc1ccccn1", "stereo": "configuration not stated", "A": 11.46, "C": 1.961}
{"compound": "COc1c(CNCCc2c[nH]c3ccccc23)c(C(C)C)nn1C", "A": 11.7, "B": 0.5161, "C": 0.6734}
{"compound": "Cc1cc(=O)n(C)cc1NC(=O)NCc1cccc(F)c1", "A": 106.8, "B": 0.8942, "C": 2.2}
{"compound": "O=C(c1ccc(CN2CCCC2)cc1)N1CCCC(n2cccn2)C1", "stereo": "configuration not stated", "A": 27.27, "B": -5.853, "C": -1.008}
{"compound": "CCc1ccc(C(C)NC(=O)CCc2nc(-c3nnc[nH]3)no2)cc1", "stereo": "configuration not stated", "A": 24.73, "B": 3.293, "C": 1.827}
{"compound": "Cc1cccc(N2Cc3nc(=O)[nH]n3C2=O)c1", "A": 11.65, "B": -3.819, "C": 10.63}

From ChEMBL document CHEMBL3988442, “University of Dundee, Small-Polar-MMV Screening Library” (2021).